The entries are a selection whose mix differs from that of the whole data set.
These targets were tested with COC(=O)C#Cc1ccccc1 [methyl 3-phenylpropiolate] (assay: log2 ratio of iodoacetamide-alkyne labeling of the cysteine site, DMSO over compound (competition); higher = stronger covalent engagement of the cysteine by the compound, active = 1 or more). Conditions: 500 µM; treatment time 1 h; system: HEK293T cell lysate.
Method in brief: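 After 1 h at ambient temperature with vehicle or electrophile (500 µM), HEK293T lysate (2 mg/mL) was labelled for 1 h with iodoacetamide alkyne and clicked to sCIP-TMT reagents. Pooled samples were trypsin-digested overnight at 37 °C, streptavidin-enriched, acid-eluted and analysed by Orbitrap Eclipse LC-MS/MS with FAIMS, then quantified in FragPipe over three replicates with duplicate channels. A cysteine's log2 competition ratio is its mean control-channel over mean compound-channel reporter intensity. Cysteines quantified in only one replicate were not included.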

The chains behind the UniProt entries cited, without tags or fusion partners. Where a name states a change or a piece, a line headed by the entry shows the natural chain unless it says otherwise.
UniProt Q9UNE7: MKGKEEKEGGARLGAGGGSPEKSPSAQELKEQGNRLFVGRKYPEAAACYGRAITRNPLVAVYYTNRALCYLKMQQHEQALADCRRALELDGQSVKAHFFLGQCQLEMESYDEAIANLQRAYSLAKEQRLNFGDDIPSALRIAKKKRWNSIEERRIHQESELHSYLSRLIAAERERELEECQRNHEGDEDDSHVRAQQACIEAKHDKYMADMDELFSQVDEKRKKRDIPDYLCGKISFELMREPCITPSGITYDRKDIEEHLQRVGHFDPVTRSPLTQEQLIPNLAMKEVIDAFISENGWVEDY
UniProt Q9Y3L3: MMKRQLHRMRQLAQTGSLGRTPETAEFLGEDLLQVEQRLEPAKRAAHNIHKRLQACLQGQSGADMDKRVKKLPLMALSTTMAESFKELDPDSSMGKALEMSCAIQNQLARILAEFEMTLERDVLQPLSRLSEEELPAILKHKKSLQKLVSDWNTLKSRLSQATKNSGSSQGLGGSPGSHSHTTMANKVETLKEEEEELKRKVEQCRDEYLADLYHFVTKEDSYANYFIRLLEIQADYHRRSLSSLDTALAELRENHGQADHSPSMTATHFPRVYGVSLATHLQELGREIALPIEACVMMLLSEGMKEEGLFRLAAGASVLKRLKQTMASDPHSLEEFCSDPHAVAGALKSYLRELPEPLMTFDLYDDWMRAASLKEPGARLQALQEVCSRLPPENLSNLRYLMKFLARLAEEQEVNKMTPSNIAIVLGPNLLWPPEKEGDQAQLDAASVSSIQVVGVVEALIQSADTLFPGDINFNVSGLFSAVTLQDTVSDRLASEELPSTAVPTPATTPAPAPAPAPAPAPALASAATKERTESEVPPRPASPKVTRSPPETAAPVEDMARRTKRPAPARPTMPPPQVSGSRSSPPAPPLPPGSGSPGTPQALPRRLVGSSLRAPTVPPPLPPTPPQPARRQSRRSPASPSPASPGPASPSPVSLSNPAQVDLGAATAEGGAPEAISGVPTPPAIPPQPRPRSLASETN
UniProt Q9Y221: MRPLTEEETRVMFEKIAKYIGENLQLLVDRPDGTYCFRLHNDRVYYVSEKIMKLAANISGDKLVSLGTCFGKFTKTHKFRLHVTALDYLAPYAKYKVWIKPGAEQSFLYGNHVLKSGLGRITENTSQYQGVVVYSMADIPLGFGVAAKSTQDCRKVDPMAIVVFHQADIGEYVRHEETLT
UniProt Q9ULT8: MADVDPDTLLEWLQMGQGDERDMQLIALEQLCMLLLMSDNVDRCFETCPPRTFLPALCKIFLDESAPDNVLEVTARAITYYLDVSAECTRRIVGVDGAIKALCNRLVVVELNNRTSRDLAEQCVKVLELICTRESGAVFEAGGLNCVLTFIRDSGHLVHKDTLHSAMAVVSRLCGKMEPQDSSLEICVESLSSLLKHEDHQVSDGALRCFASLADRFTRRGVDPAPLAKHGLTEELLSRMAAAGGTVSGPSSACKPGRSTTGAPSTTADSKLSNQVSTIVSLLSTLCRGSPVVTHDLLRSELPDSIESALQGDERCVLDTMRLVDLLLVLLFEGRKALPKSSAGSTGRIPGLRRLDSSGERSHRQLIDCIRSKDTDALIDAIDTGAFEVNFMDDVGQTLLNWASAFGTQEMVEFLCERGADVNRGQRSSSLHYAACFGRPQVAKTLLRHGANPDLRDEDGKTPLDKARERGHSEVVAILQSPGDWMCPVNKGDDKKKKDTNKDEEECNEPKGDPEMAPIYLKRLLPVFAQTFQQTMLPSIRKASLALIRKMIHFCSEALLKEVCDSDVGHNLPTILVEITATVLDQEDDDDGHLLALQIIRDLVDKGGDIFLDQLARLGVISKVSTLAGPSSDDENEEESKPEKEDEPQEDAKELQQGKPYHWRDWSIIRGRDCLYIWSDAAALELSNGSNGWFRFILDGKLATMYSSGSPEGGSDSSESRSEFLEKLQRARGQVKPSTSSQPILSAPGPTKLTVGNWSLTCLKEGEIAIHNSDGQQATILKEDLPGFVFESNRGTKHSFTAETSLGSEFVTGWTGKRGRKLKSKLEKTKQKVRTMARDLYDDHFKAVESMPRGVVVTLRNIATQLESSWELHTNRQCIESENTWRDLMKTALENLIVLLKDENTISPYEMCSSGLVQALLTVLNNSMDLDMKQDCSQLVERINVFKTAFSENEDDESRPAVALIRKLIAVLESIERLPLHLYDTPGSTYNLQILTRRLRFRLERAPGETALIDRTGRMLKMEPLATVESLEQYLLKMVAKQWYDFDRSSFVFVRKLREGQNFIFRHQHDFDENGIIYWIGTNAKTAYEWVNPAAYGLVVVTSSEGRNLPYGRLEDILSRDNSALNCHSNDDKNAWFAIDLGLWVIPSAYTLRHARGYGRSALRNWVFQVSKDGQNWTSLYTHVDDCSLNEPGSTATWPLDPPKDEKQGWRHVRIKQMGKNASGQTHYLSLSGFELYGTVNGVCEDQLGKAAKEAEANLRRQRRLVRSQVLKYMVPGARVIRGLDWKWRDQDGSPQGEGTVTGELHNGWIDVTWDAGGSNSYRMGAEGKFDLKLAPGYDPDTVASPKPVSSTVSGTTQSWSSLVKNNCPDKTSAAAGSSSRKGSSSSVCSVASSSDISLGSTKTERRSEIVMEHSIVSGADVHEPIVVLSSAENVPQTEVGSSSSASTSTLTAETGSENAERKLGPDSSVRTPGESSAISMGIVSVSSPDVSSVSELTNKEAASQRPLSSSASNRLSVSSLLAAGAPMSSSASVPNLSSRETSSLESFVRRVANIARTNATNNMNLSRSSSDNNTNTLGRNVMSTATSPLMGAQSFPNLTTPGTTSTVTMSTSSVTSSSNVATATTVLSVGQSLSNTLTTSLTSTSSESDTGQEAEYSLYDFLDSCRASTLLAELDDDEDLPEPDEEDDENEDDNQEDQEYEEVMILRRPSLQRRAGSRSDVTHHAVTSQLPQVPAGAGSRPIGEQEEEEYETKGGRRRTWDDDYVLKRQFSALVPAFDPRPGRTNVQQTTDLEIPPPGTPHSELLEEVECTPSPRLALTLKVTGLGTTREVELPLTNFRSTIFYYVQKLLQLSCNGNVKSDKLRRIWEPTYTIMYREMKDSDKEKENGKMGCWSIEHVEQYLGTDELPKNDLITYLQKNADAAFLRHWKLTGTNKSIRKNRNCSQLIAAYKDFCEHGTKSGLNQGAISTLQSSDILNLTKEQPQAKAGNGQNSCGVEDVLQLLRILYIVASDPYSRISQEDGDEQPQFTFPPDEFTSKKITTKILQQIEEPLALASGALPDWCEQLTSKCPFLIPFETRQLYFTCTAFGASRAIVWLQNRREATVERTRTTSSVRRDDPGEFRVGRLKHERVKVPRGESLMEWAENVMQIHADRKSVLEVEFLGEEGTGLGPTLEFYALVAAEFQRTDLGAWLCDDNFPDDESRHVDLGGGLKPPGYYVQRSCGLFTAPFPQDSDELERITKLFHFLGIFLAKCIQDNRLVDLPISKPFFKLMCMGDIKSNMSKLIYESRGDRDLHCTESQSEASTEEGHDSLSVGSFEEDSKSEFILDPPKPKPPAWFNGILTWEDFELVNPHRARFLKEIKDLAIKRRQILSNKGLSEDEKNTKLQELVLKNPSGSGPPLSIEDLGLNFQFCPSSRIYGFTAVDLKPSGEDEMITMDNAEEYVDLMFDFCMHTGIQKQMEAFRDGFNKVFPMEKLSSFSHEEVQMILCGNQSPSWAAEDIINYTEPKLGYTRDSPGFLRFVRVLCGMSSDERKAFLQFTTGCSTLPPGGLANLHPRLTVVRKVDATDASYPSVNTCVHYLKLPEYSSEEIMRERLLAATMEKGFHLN
UniProt Q9UKX7: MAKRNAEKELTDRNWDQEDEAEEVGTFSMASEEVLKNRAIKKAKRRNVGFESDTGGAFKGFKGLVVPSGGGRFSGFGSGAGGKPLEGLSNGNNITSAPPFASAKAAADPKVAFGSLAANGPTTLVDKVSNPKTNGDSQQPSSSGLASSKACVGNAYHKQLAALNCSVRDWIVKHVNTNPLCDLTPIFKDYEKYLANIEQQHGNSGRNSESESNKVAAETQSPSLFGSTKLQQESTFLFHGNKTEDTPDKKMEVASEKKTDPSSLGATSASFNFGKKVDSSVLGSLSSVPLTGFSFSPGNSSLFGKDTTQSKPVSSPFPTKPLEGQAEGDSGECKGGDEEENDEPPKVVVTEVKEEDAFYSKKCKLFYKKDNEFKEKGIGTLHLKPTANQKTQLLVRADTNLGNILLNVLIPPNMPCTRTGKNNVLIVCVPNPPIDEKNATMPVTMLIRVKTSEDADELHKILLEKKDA
UniProt Q9UHW5, whole entry, looked up: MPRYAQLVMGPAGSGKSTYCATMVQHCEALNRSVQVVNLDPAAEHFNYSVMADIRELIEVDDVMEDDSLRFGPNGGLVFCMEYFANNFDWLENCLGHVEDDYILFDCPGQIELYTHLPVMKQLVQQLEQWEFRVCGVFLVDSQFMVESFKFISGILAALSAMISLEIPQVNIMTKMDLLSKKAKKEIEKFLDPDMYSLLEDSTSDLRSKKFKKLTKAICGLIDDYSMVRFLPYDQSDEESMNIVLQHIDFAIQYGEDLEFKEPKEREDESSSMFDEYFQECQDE
UniProt Q9UMS4: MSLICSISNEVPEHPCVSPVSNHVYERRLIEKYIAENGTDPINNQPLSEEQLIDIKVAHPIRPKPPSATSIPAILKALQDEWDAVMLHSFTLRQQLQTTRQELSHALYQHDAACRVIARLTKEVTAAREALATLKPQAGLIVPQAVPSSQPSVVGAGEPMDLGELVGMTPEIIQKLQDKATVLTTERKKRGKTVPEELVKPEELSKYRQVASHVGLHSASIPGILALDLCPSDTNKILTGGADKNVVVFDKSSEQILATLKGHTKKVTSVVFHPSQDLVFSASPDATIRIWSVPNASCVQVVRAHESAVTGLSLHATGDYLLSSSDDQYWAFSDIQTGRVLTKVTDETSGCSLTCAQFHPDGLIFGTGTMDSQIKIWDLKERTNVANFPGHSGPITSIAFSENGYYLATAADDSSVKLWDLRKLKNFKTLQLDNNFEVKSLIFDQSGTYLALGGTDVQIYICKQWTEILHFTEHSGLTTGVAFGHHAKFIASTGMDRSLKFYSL
UniProt Q9UMY4: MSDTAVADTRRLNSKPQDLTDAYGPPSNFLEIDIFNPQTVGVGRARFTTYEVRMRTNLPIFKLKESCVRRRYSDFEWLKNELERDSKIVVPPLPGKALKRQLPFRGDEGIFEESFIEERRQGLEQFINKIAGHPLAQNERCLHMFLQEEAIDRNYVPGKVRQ
UniProt Q9Y2L1: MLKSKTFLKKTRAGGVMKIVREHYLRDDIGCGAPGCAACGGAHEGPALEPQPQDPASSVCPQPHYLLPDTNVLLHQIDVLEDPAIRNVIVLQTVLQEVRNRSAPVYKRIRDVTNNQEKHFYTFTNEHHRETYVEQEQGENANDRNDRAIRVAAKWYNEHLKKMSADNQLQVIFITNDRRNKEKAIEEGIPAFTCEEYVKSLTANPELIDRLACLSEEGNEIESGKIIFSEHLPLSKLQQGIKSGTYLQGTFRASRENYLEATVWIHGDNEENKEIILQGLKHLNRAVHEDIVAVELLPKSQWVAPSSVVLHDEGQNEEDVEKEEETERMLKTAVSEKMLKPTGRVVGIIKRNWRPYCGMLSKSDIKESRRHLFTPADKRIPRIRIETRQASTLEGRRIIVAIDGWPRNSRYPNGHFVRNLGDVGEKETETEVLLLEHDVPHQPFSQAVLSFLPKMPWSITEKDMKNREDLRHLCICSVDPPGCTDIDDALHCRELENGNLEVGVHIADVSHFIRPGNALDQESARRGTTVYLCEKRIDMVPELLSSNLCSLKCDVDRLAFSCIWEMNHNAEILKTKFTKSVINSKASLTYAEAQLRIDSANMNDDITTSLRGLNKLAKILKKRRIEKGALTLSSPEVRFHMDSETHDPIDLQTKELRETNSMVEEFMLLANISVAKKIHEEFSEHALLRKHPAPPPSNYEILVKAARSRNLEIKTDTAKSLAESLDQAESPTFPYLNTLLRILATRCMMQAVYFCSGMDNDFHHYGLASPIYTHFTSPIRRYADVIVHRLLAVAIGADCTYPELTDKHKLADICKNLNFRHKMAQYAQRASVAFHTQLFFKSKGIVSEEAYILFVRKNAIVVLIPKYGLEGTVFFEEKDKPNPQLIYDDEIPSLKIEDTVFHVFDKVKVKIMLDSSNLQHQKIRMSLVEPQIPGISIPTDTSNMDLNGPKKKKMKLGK
UniProt Q9UHR6: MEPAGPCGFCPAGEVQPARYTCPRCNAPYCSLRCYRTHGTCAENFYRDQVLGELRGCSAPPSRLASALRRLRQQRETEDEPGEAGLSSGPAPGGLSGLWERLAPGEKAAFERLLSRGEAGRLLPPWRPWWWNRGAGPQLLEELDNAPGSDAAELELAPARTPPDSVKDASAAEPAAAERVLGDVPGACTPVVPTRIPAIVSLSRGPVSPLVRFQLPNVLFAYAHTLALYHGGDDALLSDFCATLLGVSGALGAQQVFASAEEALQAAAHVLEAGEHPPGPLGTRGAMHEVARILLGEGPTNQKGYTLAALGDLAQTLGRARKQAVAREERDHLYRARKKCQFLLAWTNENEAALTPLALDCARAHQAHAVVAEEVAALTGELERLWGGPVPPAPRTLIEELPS

| Target | log2 ratio of iodoacetamide-alkyne labeling |
| --- | --- |
| BAZ1B C994 (UniProt Q9UIG0) | inactive: 0.236 |
| STUB1 C103 (UniProt Q9UNE7) | inactive: 0.185 |
| DRG1 C195 (UniProt Q9Y295) | inactive: 0.248 |
| SH3BP1 C338 (UniProt Q9Y3L3) | inactive: 0.144 |
| SRRM2 C1016 (UniProt Q9UQ35) | active: 1.12 |
| ANAPC2 C421 (UniProt Q9UJX6) | inactive: 0.311 |
| NIP7 C36 (UniProt Q9Y221) | inactive: 0.0199 |
| HECTD1 C1389 (UniProt Q9ULT8) | inactive: 0.795 |
| MRPL11 C50 (UniProt Q9Y3B7) | inactive: -0.0706 |
| NUP50 C416 (UniProt Q9UKX7) | inactive: 0.0524 |
| MINPP1 C475 (UniProt Q9UNW1) | inactive: 0.23 |
| NOC2L C585 (UniProt Q9Y3T9) | inactive: 0.265 |
| MACF1 C7344 (UniProt Q9UPN3) | inactive: -0.0093 |
| GPN3 C281 (UniProt Q9UHW5) | inactive: -0.0834 |
| AGTPBP1 C567 (UniProt Q9UPW5) | active: 1.18 |
| CPSF3 C655 (UniProt Q9UKF6) | inactive: 0.293 |
| PRPF19 C114 (UniProt Q9UMS4) | inactive: 0.209 |
| SNX12 C141 (UniProt Q9UMY4) | inactive: 0.351 |
| UniProt Q9Y3I0_C122 | inactive: 0.138 |
| DIS3 C799 (UniProt Q9Y2L1) | inactive: 0.13 |
| ZNHIT2 C188 (UniProt Q9UHR6) | inactive: 0.218 |

Shown as labelled records: part of the list above
STUB1 C103 (UniProt Q9UNE7)
  log2 ratio of iodoacetamide-alkyne labeling: inactive: 0.185
AGTPBP1 C567 (UniProt Q9UPW5)
  log2 ratio of iodoacetamide-alkyne labeling: active: 1.18

Reference: the supplement of paper PMC11006884
